Source: paper PMC8718910
No constants are given. Whether binding was seen depends on the method and setting. In cells and extracts the contact can be indirect. Tags and fused reporters may be left off the sequences shown.

Target: T1, rat nucleosome assembly protein 1 like 5 (rNap1l5-Flag) (rat) (UniProt Q5PPG6)
T1 sequence: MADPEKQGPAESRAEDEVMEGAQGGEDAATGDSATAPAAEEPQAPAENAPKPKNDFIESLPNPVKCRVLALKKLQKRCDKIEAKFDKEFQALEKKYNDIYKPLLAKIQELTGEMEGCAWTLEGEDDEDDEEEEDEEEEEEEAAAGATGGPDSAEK
Test: co-IP; HEK293T cells co-transfected with the plasmids; IP buffer 50mM Tris-HCl (pH 8.0), 150mM NaCl, 2mM EDTA, 1% NP-40, 5% glycerol; 1 μg antibody and protein A/G-agarose beads at 4°C overnight; blotted with the indicated primary antibodies

## rat SDA1 domain containing 1 (SDAD1-HA) (from UniProt Q5XIQ5 1-686)
  binding: no binding
